Results taken from publication PMC4357696.
Numbering of substitutions follows the chain as printed. No constants are given. Whether binding was seen depends on the method and setting. Some entries that bind do so weakly or less than the wild type. Where a sequence is shown, tags or fusion partners need not be part of it.

The chains behind the UniProt entries cited, without tags or fusion partners.
UniProt P15873: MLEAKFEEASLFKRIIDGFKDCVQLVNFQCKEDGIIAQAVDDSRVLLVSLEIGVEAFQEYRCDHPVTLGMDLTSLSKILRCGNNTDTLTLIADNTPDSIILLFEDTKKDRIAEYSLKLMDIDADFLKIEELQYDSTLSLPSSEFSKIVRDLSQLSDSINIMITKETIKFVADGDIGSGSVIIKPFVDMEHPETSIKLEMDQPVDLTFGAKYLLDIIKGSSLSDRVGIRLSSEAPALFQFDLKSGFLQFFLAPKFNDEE

Experiments:
Experiment in all cases: two-hybrid; yeast two-hybrid, Gal4 AD and BD fusions expressed from high-copy-number plasmids (2μ-based); also the Rad5 deletion constructs in pGBT9
[1] = target: T1, full length Rad5 (1-1169 a.a.), Gal4 DNA-binding domain fusion (pGBT9-RAD5, p347) (budding yeast) (UniProt P32849)
T1 sequence: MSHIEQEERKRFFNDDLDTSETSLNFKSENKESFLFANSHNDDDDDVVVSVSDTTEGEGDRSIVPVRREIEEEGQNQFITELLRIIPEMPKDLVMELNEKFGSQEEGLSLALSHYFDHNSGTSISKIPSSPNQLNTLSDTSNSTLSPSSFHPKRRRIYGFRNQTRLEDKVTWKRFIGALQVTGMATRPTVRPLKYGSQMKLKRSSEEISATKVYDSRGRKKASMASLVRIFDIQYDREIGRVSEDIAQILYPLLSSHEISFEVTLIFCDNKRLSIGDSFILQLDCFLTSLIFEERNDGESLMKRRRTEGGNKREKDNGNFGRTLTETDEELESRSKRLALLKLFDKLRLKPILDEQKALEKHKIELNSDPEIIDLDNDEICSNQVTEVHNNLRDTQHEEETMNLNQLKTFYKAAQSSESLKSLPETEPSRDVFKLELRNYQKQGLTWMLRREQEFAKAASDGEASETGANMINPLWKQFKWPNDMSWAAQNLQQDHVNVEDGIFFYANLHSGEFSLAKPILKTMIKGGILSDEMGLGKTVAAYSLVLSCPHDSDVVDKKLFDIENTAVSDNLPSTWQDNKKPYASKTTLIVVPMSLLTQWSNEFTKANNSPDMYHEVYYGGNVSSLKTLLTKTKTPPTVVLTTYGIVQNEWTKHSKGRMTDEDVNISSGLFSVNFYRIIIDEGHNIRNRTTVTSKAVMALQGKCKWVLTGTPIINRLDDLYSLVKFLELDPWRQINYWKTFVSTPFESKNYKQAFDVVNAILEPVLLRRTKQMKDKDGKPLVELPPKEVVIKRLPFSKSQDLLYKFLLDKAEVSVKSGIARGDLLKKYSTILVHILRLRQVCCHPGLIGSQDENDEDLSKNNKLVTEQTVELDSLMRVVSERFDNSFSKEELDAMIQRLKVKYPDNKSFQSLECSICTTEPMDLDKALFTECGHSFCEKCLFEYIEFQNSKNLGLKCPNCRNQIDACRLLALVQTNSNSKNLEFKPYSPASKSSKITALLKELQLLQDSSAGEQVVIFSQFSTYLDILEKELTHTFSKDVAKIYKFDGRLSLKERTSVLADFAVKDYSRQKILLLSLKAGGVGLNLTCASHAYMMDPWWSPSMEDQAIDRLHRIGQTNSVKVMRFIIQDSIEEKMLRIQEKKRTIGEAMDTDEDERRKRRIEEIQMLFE

[2] = target: T2, rad5-AA (D681A, E682A), Gal4 DNA-binding domain fusion (pGBT9-rad5-AA, p404) (budding yeast) (UniProt P32849)
T2 sequence: T1 sequence with D681A, E682A

[3] = target: T3, Rad5 N-terminal domain (1-393 a.a.), Gal4 DNA-binding domain fusion (pGBT9-rad5-1-393 a.a., p448) (budding yeast) (UniProt P32849)
T3 sequence: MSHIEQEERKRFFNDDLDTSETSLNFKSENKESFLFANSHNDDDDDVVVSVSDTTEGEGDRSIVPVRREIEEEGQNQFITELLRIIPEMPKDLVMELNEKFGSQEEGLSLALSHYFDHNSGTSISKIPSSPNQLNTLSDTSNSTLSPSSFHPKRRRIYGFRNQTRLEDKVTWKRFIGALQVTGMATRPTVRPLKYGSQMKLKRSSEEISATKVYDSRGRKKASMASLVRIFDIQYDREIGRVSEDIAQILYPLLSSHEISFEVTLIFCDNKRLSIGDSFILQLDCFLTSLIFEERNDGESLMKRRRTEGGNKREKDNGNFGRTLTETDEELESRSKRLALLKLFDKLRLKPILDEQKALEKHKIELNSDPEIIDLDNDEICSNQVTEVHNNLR

Measured: binding

PCNA, Gal4 activation domain fusion (pGAD424-POL30, p343) (from UniProt P15873 1-258)
binds: all assays above
